According to the supplement of paper PMC10689618:
Counter-ions that a name gives are not always drawn. The list shows a part of the results. Many values rest on one well or one pass, so single values are uncertain.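 Primary human fetal astrocytes engulfed labelled rat cortical synaptosomes, measured as a red/green ratio corrected for calcein live-cell signal and scaled to the plate median. Toxicity meant calcein falling over 30%; decreased phagocytosis meant below 70% of median above 5 µM.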

Key:
Human fetal astrocytes [1] = assay: loss of total cells relative to no-compound high-control median (toxicity); higher = more toxic (fewer cells); conditions: 24 h
Human fetal astrocytes [2] = assay: synaptosome phagocytosis (pHrodo/calcein intensity ratio) relative to plate median of data wells; higher = more phagocytosis; conditions: 24 h

Row | Compound | loss of total cells (Human fetal astrocytes [1]; 1.39 µM) [%] | loss of total cells (Human fetal astrocytes [1]; 2.78 µM) [%] | loss of total cells (Human fetal astrocytes [1]; 5.56 µM) [%] | loss of total cells (Human fetal astrocytes [1]; 11.11 µM) [%] | loss of total cells (Human fetal astrocytes [1]; 22.22 µM) [%] | synaptosome phagocytosis (Human fetal astrocytes [2]; 1.39 µM) [%] | synaptosome phagocytosis (Human fetal astrocytes [2]; 2.78 µM) [%] | synaptosome phagocytosis (Human fetal astrocytes [2]; 5.56 µM) [%] | synaptosome phagocytosis (Human fetal astrocytes [2]; 11.11 µM) [%] | synaptosome phagocytosis (Human fetal astrocytes [2]; 22.22 µM) [%]
1 | CN1C(C(=O)Nc2ccccn2)=C(O)c2sccc2S1(=O)=O | -33.9 | 11.1 | 8.1 | 41 | 14 | 106 | 128 | 97.5 | 138 | 93.1
2 | C[C@H](CCC(=O)NCC(=O)O)[C@H]1CC[C@H]2[C@@H]3[C@H](O)C[C@@H]4C[C@H](O)CC[C@]4(C)[C@H]3C[C@H](O)[C@]12C | 14.8 | 12.6 | 19.6 | -4.6 | 3.8 | 85.3 | 138 | 115 | 117 | 114
3 | COc1cc2c(cc1OC)[C@@H]1C(=O)c3ccc4c(c3O[C@@H]1CO2)C=CC(C)(C)O4 | 32.2 | 27.9 | 18.3 | 46.5 | 44.8 | 71.2 | 67 | 65.1 | 63 | 59.9
4 | Cc1ccsc1/C=C/C1=NCCCN1C | -41.9 | 22.2 | -1.2 | 44.9 | -2.2 | 66.6 | 158 | 69.6 | 125 | 66.9
5 | CC(=O)OCC(=O)[C@@]1(O)CC[C@H]2[C@@H]3CCC4=CC(=O)CC[C@]4(C)[C@@]3(F)[C@@H](O)C[C@@]21C | 3.3 | -10.5 | -30.7 | -9.5 | -10 | 105 | 90.7 | 111 | 128 | 111
6 | OC1C(O)C(O)C(O)C(O)C1O (stereo not given) | 6.8 | -17.3 | -13.2 | -0.3 | 43.5 | 112 | 134 | 133 | 114 | 108
7 | C=C[C@H]1CN2CC[C@H]1C[C@@H]2[C@@H](O)c1ccnc2ccc(OC)cc12 | 6.2 | -20 | -14.6 | 3.7 | -2.1 | 83.2 | 74.7 | 97.3 | 86.7 | 112
8 | CCN(CC)CCCC(C)Nc1c2ccc(Cl)cc2nc2ccc(OC)cc12 (stereo not given) [Quinacrine dihydrochloride] | 15.1 | -10.5 | -14.6 | 31.4 | 53.2 | 76 | 79.7 | 64 | 56.5 | 20.4
9 | Cc1nc(C)c(Cl)c(O)c1Cl | -20.2 | 19 | 2.5 | 34.4 | 3.4 | 116 | 124 | 92.5 | 149 | 91.8
10 | CC(=O)Nc1cccc(O)c1 | 1.8 | 8.3 | 10.1 | -7.1 | 2.3 | 82.6 | 82.8 | 118 | 138 | 119
11 | CC[C@H](C)C(=O)O[C@H]1CCC=C2C=C[C@H](C)[C@H](CC[C@@H]3C[C@@H](O)CC(=O)O3)[C@H]21 | -7.4 | 2.5 | 11 | 5.4 | 12.6 | 90.3 | 115 | 75.5 | 87.5 | 93.8
12 | Nc1ccc(S(=O)(=O)NC(=O)c2ccccc2)cc1 | -13.4 | -28.1 | -27.2 | -4.3 | 21 | 106 | 130 | 115 | 92.2 | 122
13 | COC(=O)c1c(C)cc(O)cc1O | -15.6 | 2 | 29.8 | 1.3 | -13.7 | 86.1 | 114 | 130 | 95.4 | 88.6
14 | CC(=O)O[C@@H]1C[C@H]2C(C)(C)[C@@H](O)CC[C@]2(C)[C@H]2CC[C@@]3(C)[C@H](c4ccoc4)OC(=O)[C@H]4O[C@]43[C@@]21C [beta-DIHYDROGEDUNOL] | -5.4 | 0 | -13.7 | 0.6 | 10.7 | 82.7 | 109 | 125 | 117 | 118
15 | CC(O)Cn1cnc2c1c(=O)n(C)c(=O)n2C (stereo not given) | 18.4 | 15.5 | 8.7 | 10.5 | 15.2 | 151 | 120 | 131 | 98.5 | 103
16 | COC(=O)[C@H](c1ccccc1Cl)N1CCc2sccc2C1 | -43.5 | -19.8 | -4.3 | 27.9 | 12.8 | 90.8 | 96 | 117 | 124 | 98.2
17 | CC(=O)Oc1ccc2c(c1OC(C)=O)OCC1(O)Cc3c(cc(OC(C)=O)c(OC(C)=O)c3OC(C)=O)C21 (stereo not given) | 12 | 14 | 6.1 | 60.6 | 42.6 | 124 | 88.9 | 85.7 | 126 | 110
18 | COCCCOc1ccnc(C[S+]([O-])c2nc3ccccc3[nH]2)c1C (stereo not given) | 5.4 | 14 | 9.2 | -9 | 15.9 | 126 | 84.9 | 110 | 115 | 124
19 | O=Cc1ccccc1O[C@@H]1O[C@H](CO)[C@@H](O)[C@H](O)[C@H]1O | -16.4 | -8.3 | -3.7 | 13.5 | -7.4 | 130 | 86.8 | 120 | 101 | 102
20 | C#CCCCCCCCCCCCC(O)CC(O)CO (stereo not given) | 12 | 2.7 | -37.4 | 16.8 | -10.7 | 65.2 | 56.3 | 66.7 | 57.8 | 52.5
21 | CN(C)c1ccc(C(=C2C=CC(=[N+](C)C)C=C2)c2ccc(N(C)C)cc2)cc1 | 11.6 | -2.4 | 18.8 | 48.7 | 96.4 | 81.7 | 57.8 | 63.8 | 63.6 | 38.2

Record cards, from the list above. Values in the order: loss of total cells (Human fetal astrocytes [1]; 1.39 µM) [%] | loss of total cells (Human fetal astrocytes [1]; 2.78 µM) [%] | loss of total cells (Human fetal astrocytes [1]; 5.56 µM) [%] | loss of total cells (Human fetal astrocytes [1]; 11.11 µM) [%] | loss of total cells (Human fetal astrocytes [1]; 22.22 µM) [%] | synaptosome phagocytosis (Human fetal astrocytes [2]; 1.39 µM) [%] | synaptosome phagocytosis (Human fetal astrocytes [2]; 2.78 µM) [%] | synaptosome phagocytosis (Human fetal astrocytes [2]; 5.56 µM) [%] | synaptosome phagocytosis (Human fetal astrocytes [2]; 11.11 µM) [%] | synaptosome phagocytosis (Human fetal astrocytes [2]; 22.22 µM) [%]
CC(=O)Oc1ccc2c(c1OC(C)=O)OCC1(O)Cc3c(cc(OC(C)=O)c(OC(C)=O)c3OC(C)=O)C21 (stereo not given) in the list: 12 | 14 | 6.1 | 60.6 | 42.6 | 124 | 88.9 | 85.7 | 126 | 110
CN(C)c1ccc(C(=C2C=CC(=[N+](C)C)C=C2)c2ccc(N(C)C)cc2)cc1 in the list: 11.6 | -2.4 | 18.8 | 48.7 | 96.4 | 81.7 | 57.8 | 63.8 | 63.6 | 38.2
